Results are given in words; binding and its absence hold for the method and conditions named. Binding seen in cells or lysates may run through a third protein. Some binding calls cover weakened binding; strength is not graded here.

Sequences of proteins named here, by UniProt entry; tags and fusion partners are left off.
UniProt Q96SN7: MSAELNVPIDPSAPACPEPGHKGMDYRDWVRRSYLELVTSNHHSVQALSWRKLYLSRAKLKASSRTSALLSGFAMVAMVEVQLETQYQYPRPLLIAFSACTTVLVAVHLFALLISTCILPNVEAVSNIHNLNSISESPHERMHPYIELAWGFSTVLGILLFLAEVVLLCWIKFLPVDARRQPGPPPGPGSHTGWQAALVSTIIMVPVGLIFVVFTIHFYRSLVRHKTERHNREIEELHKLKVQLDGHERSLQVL
UniProt Q96D31: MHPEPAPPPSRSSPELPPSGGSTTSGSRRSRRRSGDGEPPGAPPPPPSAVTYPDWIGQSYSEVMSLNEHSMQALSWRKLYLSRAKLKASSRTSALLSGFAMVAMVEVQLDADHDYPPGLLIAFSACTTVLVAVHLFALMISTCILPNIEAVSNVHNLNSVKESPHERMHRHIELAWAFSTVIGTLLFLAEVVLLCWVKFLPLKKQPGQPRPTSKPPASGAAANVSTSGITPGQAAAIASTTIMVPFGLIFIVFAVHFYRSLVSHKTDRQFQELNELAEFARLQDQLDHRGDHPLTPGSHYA
UniProt O15554: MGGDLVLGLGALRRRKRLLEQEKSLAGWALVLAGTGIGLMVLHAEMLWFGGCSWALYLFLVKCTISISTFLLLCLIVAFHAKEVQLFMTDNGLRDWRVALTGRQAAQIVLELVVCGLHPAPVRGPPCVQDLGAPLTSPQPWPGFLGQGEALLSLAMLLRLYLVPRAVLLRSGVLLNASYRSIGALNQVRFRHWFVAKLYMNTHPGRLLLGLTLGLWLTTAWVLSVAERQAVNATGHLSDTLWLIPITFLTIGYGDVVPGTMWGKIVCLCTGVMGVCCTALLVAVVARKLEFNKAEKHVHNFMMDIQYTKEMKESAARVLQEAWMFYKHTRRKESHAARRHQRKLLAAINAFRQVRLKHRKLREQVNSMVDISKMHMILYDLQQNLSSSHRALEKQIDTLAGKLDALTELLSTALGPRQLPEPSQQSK

Assay [1] deals with c-Myc epitope-tagged Orai2 (UniProt Q96SN7). The assay can be described thus: co-IP; lysates of co-transfected HEK293 cells (50 mM Tris pH 8.0, 150 mM NaCl, 1 % Triton X-100); immunoprecipitation with mouse anti-c-Myc 9E10 and protein G-sepharose, 16-18 h at 4 °C; blot with anti-FLAG.
The target in assay [2] is c-Myc epitope-tagged Orai1 (UniProt Q96D31). The assay is described as above.
For assay [3], the target named is FLAG epitope-tagged KCa3.1 (human) (UniProt O15554). The assay can be described thus: co-IP; lysates of co-transfected HEK293 cells (50 mM Tris pH 8.0, 150 mM NaCl, 1 % Triton X-100); immunoprecipitation with rabbit polyclonal anti-FLAG and protein A-agarose; blot with anti-myc or anti-Orai2.

Turning to “FLAG epitope-tagged KCa3.1 (from UniProt O15554 1-427)”, the binding result is on record as “no binding” in assay [1] and “binds” in assay [2].
As for “c-Myc epitope-tagged Orai1 (from UniProt Q96D31 1-301)”, in assay [3], the binding entry is “binds”.
On the same count and under the same terms, the result for “c-Myc epitope-tagged Orai2 (from UniProt Q96SN7 1-254)” reads “no binding”.

Source of the values: article PMC4504158.
